In article PMC8197395:
No constants are given. Whether binding was seen depends on the method and setting. In cells and extracts the contact can be indirect. Some binding calls cover weakened binding; strength is not graded here. Sequences can lack the tags named with a protein.

By UniProt entry, the sequences of proteins in these tests, tags left out. Residues count along the entry.
UniProt Q92841: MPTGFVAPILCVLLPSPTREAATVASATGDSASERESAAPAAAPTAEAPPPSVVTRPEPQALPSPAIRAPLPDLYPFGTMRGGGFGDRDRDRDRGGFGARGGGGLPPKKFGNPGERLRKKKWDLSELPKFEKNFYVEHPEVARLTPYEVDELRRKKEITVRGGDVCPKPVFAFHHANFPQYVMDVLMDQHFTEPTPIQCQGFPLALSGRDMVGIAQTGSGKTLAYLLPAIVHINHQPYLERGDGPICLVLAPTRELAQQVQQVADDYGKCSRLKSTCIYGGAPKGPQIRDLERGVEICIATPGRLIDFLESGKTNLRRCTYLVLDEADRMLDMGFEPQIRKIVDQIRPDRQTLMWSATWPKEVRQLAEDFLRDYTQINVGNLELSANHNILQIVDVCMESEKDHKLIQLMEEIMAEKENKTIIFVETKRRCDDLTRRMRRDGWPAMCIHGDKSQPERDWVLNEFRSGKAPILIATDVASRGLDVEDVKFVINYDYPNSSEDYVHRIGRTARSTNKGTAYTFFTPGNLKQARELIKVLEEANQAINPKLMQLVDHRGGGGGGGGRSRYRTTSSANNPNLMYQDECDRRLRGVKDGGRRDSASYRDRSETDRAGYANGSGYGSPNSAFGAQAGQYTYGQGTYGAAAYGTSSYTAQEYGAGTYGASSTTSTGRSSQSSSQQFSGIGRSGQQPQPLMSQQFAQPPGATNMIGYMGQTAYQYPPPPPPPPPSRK
UniProt P29372, residues 18-298: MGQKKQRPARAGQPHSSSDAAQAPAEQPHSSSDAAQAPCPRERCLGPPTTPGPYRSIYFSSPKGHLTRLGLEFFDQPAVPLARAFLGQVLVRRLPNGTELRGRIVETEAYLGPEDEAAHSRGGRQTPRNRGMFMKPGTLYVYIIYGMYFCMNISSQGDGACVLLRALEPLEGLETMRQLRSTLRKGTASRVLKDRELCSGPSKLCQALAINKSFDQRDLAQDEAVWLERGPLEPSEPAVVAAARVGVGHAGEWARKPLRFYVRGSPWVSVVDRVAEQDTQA

Target: T1, Zeb1/GFP fusion protein (UniProt P37275)
T1 sequence: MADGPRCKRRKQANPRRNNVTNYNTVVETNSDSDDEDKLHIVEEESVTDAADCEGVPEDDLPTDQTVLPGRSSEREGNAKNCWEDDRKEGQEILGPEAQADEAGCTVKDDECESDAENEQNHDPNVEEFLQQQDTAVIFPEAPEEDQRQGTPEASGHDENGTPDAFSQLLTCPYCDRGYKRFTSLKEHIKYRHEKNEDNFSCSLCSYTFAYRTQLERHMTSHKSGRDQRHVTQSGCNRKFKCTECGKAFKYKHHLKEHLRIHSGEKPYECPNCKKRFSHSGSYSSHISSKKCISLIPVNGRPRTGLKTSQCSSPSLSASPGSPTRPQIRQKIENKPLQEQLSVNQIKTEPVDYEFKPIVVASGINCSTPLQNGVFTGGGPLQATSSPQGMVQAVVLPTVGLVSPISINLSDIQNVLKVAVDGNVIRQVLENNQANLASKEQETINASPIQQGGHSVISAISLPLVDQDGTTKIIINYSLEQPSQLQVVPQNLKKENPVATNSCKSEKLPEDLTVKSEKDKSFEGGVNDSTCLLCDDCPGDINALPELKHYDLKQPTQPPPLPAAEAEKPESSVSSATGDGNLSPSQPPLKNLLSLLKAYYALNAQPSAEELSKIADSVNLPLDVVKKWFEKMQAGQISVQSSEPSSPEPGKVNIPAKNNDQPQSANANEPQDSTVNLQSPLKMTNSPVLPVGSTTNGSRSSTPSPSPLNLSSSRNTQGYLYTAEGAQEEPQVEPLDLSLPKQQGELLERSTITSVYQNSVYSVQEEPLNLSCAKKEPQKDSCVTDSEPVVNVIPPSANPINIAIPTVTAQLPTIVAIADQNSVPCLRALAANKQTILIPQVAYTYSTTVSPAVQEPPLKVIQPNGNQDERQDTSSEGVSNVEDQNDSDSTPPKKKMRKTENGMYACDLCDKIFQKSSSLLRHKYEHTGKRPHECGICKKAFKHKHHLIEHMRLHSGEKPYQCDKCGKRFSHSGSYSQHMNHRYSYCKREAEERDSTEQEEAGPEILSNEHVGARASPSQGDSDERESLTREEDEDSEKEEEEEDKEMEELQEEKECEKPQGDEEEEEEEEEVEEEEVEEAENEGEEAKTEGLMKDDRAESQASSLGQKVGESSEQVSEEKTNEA
Experiment: co-IP; nuclear extracts of MCF-7/Zeb1 cells at 0, 24 and 72 h after doxycycline; precipitated with llama nanoantibodies to GFP on sepharose; immunoblot with antibodies to the partners

binding	Substance
binds	ATP-dependent RNA helicase DDX17 (from UniProt Q92841 1-729)
binds	MPG (from UniProt P29372 18-298)
binds	C-terminal-binding protein 2 (from UniProt P56545 1-445)
